Data as given in PubChem BioAssay AID1259405 (NCATS, 2018).
In all, the deposit lists about 50,000 reagents; shown is a random part of them. Over the whole deposit, about 4,000 (8%) got an active call. 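Mouse siRNA library applied to hamster cells; one well for each siRNA.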 A number with no mark means an inactive call. Reagents against one gene are numbered here.

Test: 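Silenced genes that increase secreted GFP made by CHO cells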 (primary screen)
Cell system: Chinese hamster CHO-K1 ovary cells with stable secreted eGFP expression
Knock-down reagent: single siRNA against mouse genes, 0.8 pmol siRNA per well (2 µl of 400 nM stock)
Duration: 3 days
Detection: 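Percent of the per-plate non-targeting control median for intracellular GFP per well by laser scanning cytometry and for cell viability by ATP luminescence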
Scale: GFP, % of control: higher = more GFP per well, higher productivity; viability (ATP), % of control: higher = more viable cells (more ATP)
Rule for the call: 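a knock-down is called active if GFP reaches 120% or more of non-targeting control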

no.	gene	reagent	GFP, % of control	viability (ATP), % of control
1	Kcnc3	1	67.2	65.2
2	Kcnc3	2	97	69.4
3	Kcnc3	3	85	74.5
4	Tbl2 (transducin (beta)-like 2)	1	69.5	76.9
5	Tbl2 (transducin (beta)-like 2)	2	89.3	103
6	Tbl2 (transducin (beta)-like 2)	3	124 (active)	123
7	Mrps17 (mitochondrial ribosomal protein S17)	1	72.4	34.8
8	Mrps17 (mitochondrial ribosomal protein S17)	2	99.6	73.6
9	Mrps17 (mitochondrial ribosomal protein S17)	3	47.5	68.2
10	Hmx1 (H6 homeobox 1)	1	27.2	38
11	Hmx1 (H6 homeobox 1)	2	93.2	90.2
12	Hmx1 (H6 homeobox 1)	3	69.9	58.8
13	Cdk5rap2 (CDK5 regulatory subunit associated protein 2)	1	46.9	67.4
14	Cdk5rap2 (CDK5 regulatory subunit associated protein 2)	2	45.3	34.5
15	Cdk5rap2 (CDK5 regulatory subunit associated protein 2)	3	76.7	101
16	Gpr183 (G protein-coupled receptor 183)	1	121 (active)	84.1
17	Gpr183 (G protein-coupled receptor 183)	2	118	63.3
18	Gpr183 (G protein-coupled receptor 183)	3	53.9	68.3
19	Mx2 (MX dynamin-like GTPase 2)	1	53.2	90
20	Mx2 (MX dynamin-like GTPase 2)	2	71	64.6
21	Zfta (zinc finger translocation associated)	1	72.2	71.6
22	Zfta (zinc finger translocation associated)	2	140 (active)	116
23	Zfta (zinc finger translocation associated)	3	105	108
24	Ndufa7 (NADH:ubiquinone oxidoreductase subunit A7)	1	41.4	60.5
25	Ndufa7 (NADH:ubiquinone oxidoreductase subunit A7)	2	49	38.3
26	Zbbx (zinc finger, B-box domain containing)	1	57.8	39.9
27	Zbbx (zinc finger, B-box domain containing)	2	134 (active)	141
28	Zbbx (zinc finger, B-box domain containing)	3	106	121
29	Vmn1r237 (vomeronasal 1 receptor 237)	1	132 (active)	109
30	Vmn1r237 (vomeronasal 1 receptor 237)	2	58.9	77
31	Vmn1r237 (vomeronasal 1 receptor 237)	3	62.6	72.2
32	Usp44 (ubiquitin specific peptidase 44)	1	78.6	79.8
33	Usp44 (ubiquitin specific peptidase 44)	2	69.3	64.6
34	Usp44 (ubiquitin specific peptidase 44)	3	56.8	59.1
35	Ptger4 (prostaglandin E receptor 4 (subtype EP4))	1	48.1	45.1
36	Ptger4 (prostaglandin E receptor 4 (subtype EP4))	2	68	62.3
37	Ptger4 (prostaglandin E receptor 4 (subtype EP4))	3	57.6	54.5
38	Cog6 (component of oligomeric golgi complex 6)	1	108	99
39	Cog6 (component of oligomeric golgi complex 6)	2	82.6	77.3
40	Cog6 (component of oligomeric golgi complex 6)	3	51.4	90.7
41	Tbc1d31 (TBC1 domain family, member 31)	1	101	97.5
42	Tbc1d31 (TBC1 domain family, member 31)	2	73.4	81.8
43	Tbc1d31 (TBC1 domain family, member 31)	3	130 (active)	64.7
44	Fchsd1 (FCH and double SH3 domains 1)	1	42	76.5
45	Fchsd1 (FCH and double SH3 domains 1)	2	110	82.3
46	Fchsd1 (FCH and double SH3 domains 1)	3	62.6	70.7
47	Acad12 (acyl-Coenzyme A dehydrogenase family, member 12)	1	48.4	40.3
48	Acad12 (acyl-Coenzyme A dehydrogenase family, member 12)	2	82.2	107
49	Acad12 (acyl-Coenzyme A dehydrogenase family, member 12)	3	51	85.7
50	Scg5 (secretogranin V)	1	31.1	62.3
51	Scg5 (secretogranin V)	2	109	95.9
52	Scg5 (secretogranin V)	3	89.1	134
53	Crbn (cereblon)	1	80.3	113
54	Crbn (cereblon)	2	158 (active)	60.3
55	Crbn (cereblon)	3	113	88.5
56	Rabep2 (rabaptin, RAB GTPase binding effector protein 2)	1	33.5	93.6
57	Rabep2 (rabaptin, RAB GTPase binding effector protein 2)	2	50.4	63
58	Arl6ip5 (ADP-ribosylation factor-like 6 interacting protein 5)	1	78	70.3
59	Arl6ip5 (ADP-ribosylation factor-like 6 interacting protein 5)	2	55.9	51.8
60	Arl6ip5 (ADP-ribosylation factor-like 6 interacting protein 5)	3	77.6	44.7
61	Atp6v1b1 (ATPase, H+ transporting, lysosomal V1 subunit B1)	1	80.8	87.3
62	Atp6v1b1 (ATPase, H+ transporting, lysosomal V1 subunit B1)	2	48.2	49.6
63	Atp6v1b1 (ATPase, H+ transporting, lysosomal V1 subunit B1)	3	41	49.6
64	Trappc6a (trafficking protein particle complex 6A)	1	109	86.1
65	Trappc6a (trafficking protein particle complex 6A)	2	26.1	39.9
66	Trappc6a (trafficking protein particle complex 6A)	3	54	69.9
67	Gm5134 (predicted gene 5134)	1	76.7	120
68	Gm5134 (predicted gene 5134)	2	46.1	69.2
69	Gm5134 (predicted gene 5134)	3	102	100
70	Vmn1r217 (vomeronasal 1 receptor 217)	1	56.7	58.3
71	Vmn1r217 (vomeronasal 1 receptor 217)	2	80.7	60.3
72	Vmn1r217 (vomeronasal 1 receptor 217)	3	89.4	80.4

Entries listed above marked active, once more:
gene	reagent	GFP, % of control	viability (ATP), % of control
Tbl2 (transducin (beta)-like 2)	3	124 (active)	123
Gpr183 (G protein-coupled receptor 183)	1	121 (active)	84.1
Zfta (zinc finger translocation associated)	2	140 (active)	116
Zbbx (zinc finger, B-box domain containing)	2	134 (active)	141
Vmn1r237 (vomeronasal 1 receptor 237)	1	132 (active)	109
Tbc1d31 (TBC1 domain family, member 31)	3	130 (active)	64.7
Crbn (cereblon)	2	158 (active)	60.3

Further reagents follow.
no.	gene	reagent	GFP, % of control	viability (ATP), % of control
73	Rbm14 (RNA binding motif protein 14)	1	66.1	54.3
74	Rbm14 (RNA binding motif protein 14)	2	86	72.8
75	Nhsl1 (NHS like 1)	1	66.8	74.9
76	Nhsl1 (NHS like 1)	2	34.3	65.1
77	Nhsl1 (NHS like 1)	3	95.3	119
78	Nmnat2 (nicotinamide nucleotide adenylyltransferase 2)	1	103	80
79	Nmnat2 (nicotinamide nucleotide adenylyltransferase 2)	2	85.4	77.4
80	Nmnat2 (nicotinamide nucleotide adenylyltransferase 2)	3	44.8	40.4
81	Zfp709 (zinc finger protein 709)	1	53.8	68.8
82	Zfp709 (zinc finger protein 709)	2	55	54.2
83	Kdelr1	1	66.8	88.8
84	Kdelr1	2	63.6	59.6
85	Lig1 (ligase I, DNA, ATP-dependent)	1	96.1	101
86	Lig1 (ligase I, DNA, ATP-dependent)	2	77.4	84.2
87	Lig1 (ligase I, DNA, ATP-dependent)	3	65.9	97.5
88	Prrc1 (proline-rich coiled-coil 1)	1	105	86.4
89	Prrc1 (proline-rich coiled-coil 1)	2	95	67.2
90	Prrc1 (proline-rich coiled-coil 1)	3	104	66.7
91	Me3 (malic enzyme 3, NADP(+)-dependent, mitochondrial)	1	84.3	79.6
92	Me3 (malic enzyme 3, NADP(+)-dependent, mitochondrial)	2	73.8	62.9
93	Me3 (malic enzyme 3, NADP(+)-dependent, mitochondrial)	3	92	88.5
94	Scn5a (sodium channel, voltage-gated, type V, alpha)	1	140 (active)	97.6
95	Scn5a (sodium channel, voltage-gated, type V, alpha)	2	154 (active)	95.5
96	Scn5a (sodium channel, voltage-gated, type V, alpha)	3	79.9	92.3
97	4930432E11Rik (RIKEN cDNA 4930432E11 gene)	1	118	92.7
98	4930432E11Rik (RIKEN cDNA 4930432E11 gene)	2	92.5	92
99	4930432E11Rik (RIKEN cDNA 4930432E11 gene)	3	66	78.7
100	Phf24 (PHD finger protein 24)	1	73.5	77
101	Phf24 (PHD finger protein 24)	2	68.7	84.6
102	Phf24 (PHD finger protein 24)	3	89.9	47.7
103	Pnma3 (paraneoplastic antigen MA3)	1	39.2	30.2
104	Pnma3 (paraneoplastic antigen MA3)	2	102	84.2
105	Pnma3 (paraneoplastic antigen MA3)	3	104	71.5
106	Or14j4 (olfactory receptor family 14 subfamily J member 4)	1	83.2	63.2
107	Or14j4 (olfactory receptor family 14 subfamily J member 4)	2	62.2	64.6
108	Or14j4 (olfactory receptor family 14 subfamily J member 4)	3	68.4	84.2
